Data reported in publication PMC11352945, “Anticancer Activity of Benzo[a]phenoxazine Compounds Promoting Lysosomal Dysfunction” (Cells, 2024).
Some entries repeat one wording, which the source may state once for all of them.

Key:
[1] = system: RKO cell lysosomes; assay: Fluorescence co-staining with LysoSensor Green and DAPI, RKO; format: cell-based, human; details: IC50 concentration, 3 h, LysoSensor Green 2 μM
[2] = system: MCF7 cell lysosomes; assay: Fluorescence co-staining with LysoSensor Green and DAPI, MCF7; format: cell-based, human; details: MCF7, IC50 concentration, 3 h, LysoSensor Green 2 μM

Compound	Intracellular localization of compound far-red fluorescence [1]	Intracellular localization of compound far-red fluorescence [2]
ClCCCN=c1cc2oc3c4c5c(cc3nc-2c2ccccc12)CCCN5CCC4 [A42]	co-localized with the LysoSensor Green lysosome staining	co-localized with the LysoSensor Green lysosome staining
CCCNc1cc2oc3cc(=NCC)c(C)cc-3nc2c2ccccc12 [C9]	co-localized with the LysoSensor Green lysosome staining	co-localized with the LysoSensor Green lysosome staining
CCCNc1cc2oc3cc(=[N+](CCC)CCC)ccc-3nc2c2ccccc12 [A36]	co-localized with the LysoSensor Green lysosome staining	co-localized with the LysoSensor Green lysosome staining
